Measurements reported in PubChem BioAssay AID493246 (Drosophila RNAi Screening Center, 2011)
Screen: 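Identify essential fly genes by loss of cell viability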 (primary screen). System: Drosophila Kc and S2R+ cells. Reagent: long dsRNA against Drosophila genes. Measured: 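Raw, unnormalised count of remaining cells in each well; per-plate z-scores of cell number underlie the calls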. Direction: Kc cell number and S2R+ cell number: higher = more cells remaining. Call rule: 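Counted as a hit if cell number falls by a z-score of at least 3 within its plate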.
In all, the deposit lists about 21,000 reagents; this is a random part of those with a known target gene and a result. Over the whole deposit, 429 (2%) got an active call. 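Values are raw and not normalised between plates; calls rest on per-plate z-scores that were not deposited.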 Entries without a mark were called inactive. A plus sign joins genes that one reagent is predicted to hit. The record does not give: the amount of reagent, the time to read-out.

Kc cell number, rep 1	Kc cell number, rep 2	S2R+ cell number, rep 1	S2R+ cell number, rep 2	target	DRSC id
1.29e6	1.36e6	1.24e6	1.26e6	Acn	DRSC02062
1.62e6	1.59e6	1.20e6	1.22e6	CG33096	DRSC14440
7.88e5 (active)	9.81e5	4.20e5	5.32e5	wb	DRSC01375
1.59e6	1.67e6	1.34e6	1.49e6	wb	DRSC03634
1.51e6	1.54e6	1.03e6	1.18e6	CG4259	DRSC00645
1.35e6	1.39e6	1.16e6	1.13e6	Tina-1	DRSC04317
1.43e6	1.35e6	1.22e6	1.38e6	CG5906	DRSC10557
1.60e6	1.58e6	1.23e6	1.31e6	Or85f	DRSC16769
1.66e6	1.66e6	1.17e6	1.28e6	BckdhA	DRSC16395
1.55e6	1.56e6	1.11e6	1.31e6	ATP6 (retired record)	DRSC21278
1.62e6	1.76e6	1.11e6	1.30e6	Vps24	DRSC12332
1.74e6	1.68e6	1.38e6	1.46e6	Meics	DRSC11413
1.69e6	1.73e6	1.20e6	1.33e6	CG15044	DRSC19620
1.41e6	1.64e6	1.21e6	1.32e6	Sfxn2	DRSC10718
1.50e6	1.58e6	1.31e6	1.39e6	CG3494	DRSC04375
1.48e6	1.52e6	1.21e6	1.33e6	CG13747	DRSC06418
4.86e5		7.84e5		Edem1	DRSC18573
1.53e6	1.61e6	1.15e6	1.22e6	Dip-B	DRSC16466
1.72e6	1.81e6	1.19e6	1.38e6	Met75Ca + Met75Cb	DRSC09549
1.33e6	1.56e6	1.41e6	1.47e6	Met75Ca + Met75Cb	DRSC11221
1.41e6	1.67e6	1.17e6	1.35e6	CG3632	DRSC19137
6.13e5		8.67e5		CG3632	DRSC19871
1.37e6	1.35e6	1.13e6	1.22e6	14-3-3epsilon	DRSC16370
5.55e5		8.68e5		Usp16-45	DRSC18352
1.73e6	1.66e6	1.12e6	1.21e6	CHES-1-like	DRSC18447
1.67e6	1.80e6	1.43e6	1.55e6	CG17047	DRSC06648
1.87e6	1.87e6	1.13e6	1.18e6	CG15399	DRSC00413
1.04e6 (active)	1.13e6	6.29e5	7.51e5	RpL18A	DRSC07538
1.61e6	1.66e6	1.03e6	1.15e6	U2A	DRSC06445
1.73e6	1.83e6	1.02e6	1.28e6	CG42715 (retired record)	DRSC05499
1.43e6	1.53e6	1.15e6	1.03e6	CG12084	DRSC08247
1.53e6	1.68e6	1.04e6	1.20e6	Grip84	DRSC20248
1.52e6	1.63e6	1.02e6	1.12e6	Golgin84	DRSC15269
1.53e6	1.49e6	1.20e6	1.37e6	Kr-h2	DRSC03356
1.52e6	1.56e6	1.20e6	1.35e6	CG14455	DRSC11712
1.53e6	1.55e6	1.05e6	1.18e6	CG43996	DRSC19456
1.46e6	1.49e6	1.11e6	1.21e6	CG43996	DRSC19457
1.54e6	1.57e6	1.39e6	1.30e6	CG11905	DRSC09863
1.58e6	1.53e6	1.04e6	1.12e6	wam	DRSC15171
1.75e6	1.88e6	1.26e6	1.32e6	Blm	DRSC16911
1.67e6	1.74e6	1.35e6	1.54e6	Osi21	DRSC02408
1.53e6	1.57e6	1.21e6	1.29e6	CG17270	DRSC15209
1.54e6	1.62e6	1.24e6	1.44e6	CG14072	DRSC02375
1.39e6	1.39e6	1.17e6	1.27e6	wcd	DRSC07051
1.55e6	1.52e6	1.05e6	1.21e6	CG15473	DRSC18056
1.49e6	1.46e6	1.32e6	1.41e6	DNAlig3	DRSC15201
1.54e6	1.55e6	1.06e6	1.17e6	nrv2	DRSC00948
1.27e6	1.36e6	7.86e5	8.31e5	nrv2	DRSC03383
1.78e6	2.10e6	1.25e6	1.33e6	laf	DRSC12246
1.38e6	1.39e6	1.12e6	1.13e6	wde	DRSC05955
1.93e6	1.92e6	1.30e6	1.38e6	CG13589	DRSC04225
1.57e6	1.49e6	1.17e6	1.29e6	Jon25Bi	DRSC03434
1.35e6	1.41e6	9.63e5	1.14e6	Argk1	DRSC08959
1.79e6	1.84e6	1.08e6	1.08e6	Argk1	DRSC09668
1.32e6	1.38e6	1.28e6	1.20e6	Argk1	DRSC10460
1.41e6	1.46e6	1.42e6	1.42e6	CG10366	DRSC02046
1.76e6	1.70e6	1.03e6	1.14e6	CG17196	DRSC15189
1.25e6	1.34e6	1.19e6	1.31e6	TSG101	DRSC11098
1.30e6	1.35e6	1.28e6	1.21e6	dikar	DRSC09699

Entries above whose target name begins with B or b:
Kc cell number, rep 1	Kc cell number, rep 2	S2R+ cell number, rep 1	S2R+ cell number, rep 2	target	DRSC id
1.66e6	1.66e6	1.17e6	1.28e6	BckdhA	DRSC16395
1.75e6	1.88e6	1.26e6	1.32e6	Blm	DRSC16911
